For 5 molecules, cytotoxicity call and growth inhibition call results are on record in the antibiotic and cytotoxicity screens of Wong et al. (2023).

For part of these data: What follows is the remainder of the data, with few or none of the hits. Only a part is listed here, and it is no random draw.

The subject of one assay is HSkMC. The assay can be described thus: cytotoxicity call (relative viability < 0.9). The conditions noted are these: 10 µM.
Another assay relates to HepG2. Put plainly: cytotoxicity call (relative viability < 0.9). The conditions noted are these: 10 µM.
The test system of another assay is S. aureus RN4220. The assay can be described thus: growth inhibition call (relative growth <= 0.2). Particulars: 50 µM.

For `Br.CN1C2CCC1CC(OC(=O)C(O)c1ccccc1)C2` (stereo not given), the cytotoxicity call in the assay on HSkMC (human skeletal muscle cells) and in the assay on HepG2 was “inactive” in each case. The growth inhibition call in the assay with S. aureus RN4220 is “inactive”.
Consider `CCC(C)C(C(=O)OCC[N+](C)(CC)CC)c1ccccc1.[Br-]` (stereo not given), for which the cytotoxicity call in the assay with HSkMC and in the assay with HepG2 was “inactive” in each case. Besides, the growth inhibition call with S. aureus RN4220 is “inactive”.
On to `C[C@@H]1C[C@H](N)C[C@H](c2ccncc2NC(=O)c2ccc(F)c(-c3c(F)cccc3F)n2)C1`, for which the cytotoxicity call in the assay with HSkMC and with HepG2 was “inactive” in each case. The growth inhibition call with S. aureus RN4220 was “inactive”.
Take `CCOc1cc(NC(C)=O)ccc1C(=O)OC`: the cytotoxicity call in the assay with HSkMC and in the assay with HepG2 was “inactive” throughout. Also, the growth inhibition call in the assay with S. aureus RN4220 is “inactive”.
Take `CN1CCN(CCCN2c3ccccc3Sc3ccc(Cl)cc32)CC1.O=S(=O)(O)CCS(=O)(=O)O`: the cytotoxicity call with HSkMC was “inactive”. Further, the cytotoxicity call in the assay on HepG2 was “active”. In addition, the growth inhibition call in the assay on S. aureus RN4220 is “inactive”.
